PubChem BioAssay AID504791 – Drosophila RNAi Screening Center, 2011
Assay: 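Genes of the fly required for silencing by miRNA, siRNA or endo-siRNA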 (primary screen). System: Drosophila S2-derived reporter cells. Knock-down reagent: long dsRNA against Drosophila genes, about 150-250 ng dsRNA per well (siRNA assay); about 80-120 ng (miRNA assay). Timing: about 5 days (siRNA assay); about 4 days (miRNA assay). Conditions: copper sulfate induction of reporters: 25 µM (siRNA assay); 200 mM stated (miRNA assay), 1-2 days before reading. Detection: 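Dual luciferase assay: Renilla to firefly signal ratio in each well, scaled to the mean ratio of its plate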. Units: stable assay Renilla, run 1 in luminescence; stable assay firefly, run 1 in luminescence. Active means: 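a well was a first-pass pick when its plate-scaled ratio rose above 1.5 (siRNA assay) or 1.6 (miRNA assay), or dropped below 0.6; a gene counted only if two separate dsRNAs agreed on retest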.
In all, the deposit lists about 23,000 reagents; this is an unselected part of those with a known target gene and a result. Over the whole deposit, 199 (0.86%) are marked active. 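Plate-scaled ratios behind the calls are not deposited; printed light signals are raw; many rows marked increased or decreased are still called inactive.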 A plus sign joins genes that one reagent is predicted to hit. Not stated in the record: the direction of the score.

With knock-down of Eip78C (Ecdysone-induced protein 78C) [DRSC11864] the results were stable siRNA reporter change reporter ratio raised past the hit cutoff; stable assay Renilla, run 1 = 5535; stable assay firefly, run 1 = 1.86e5; inactive.
Silencing of Eip78C (Ecdysone-induced protein 78C) [DRSC23097] gave: stable assay Renilla, run 1 = 2831; stable assay firefly, run 1 = 2.36e5; inactive.
scro (scarecrow) [DRSC17099] showed stable assay Renilla, run 1 = 8675; stable assay firefly, run 1 = 5.22e5; inactive.
scro (scarecrow) [DRSC17102] scored stable assay Renilla, run 1 = 6495; stable assay firefly, run 1 = 5.05e5; inactive.
Knock-down of Det (Deterin) [DRSC14489] resulted in: stable assay Renilla, run 1 = 7842; stable assay firefly, run 1 = 3.84e5; inactive.
CG5122 [DRSC02816] gave stable assay Renilla, run 1 = 7365; stable assay firefly, run 1 = 2.94e5; inactive.
After knock-down of CG16734 [DRSC15143], the record shows stable assay Renilla, run 1 = 6815; stable assay firefly, run 1 = 4.41e5; inactive.
For trn (tartan) [DRSC11407], the values are stable assay Renilla, run 1 = 6739; stable assay firefly, run 1 = 3.85e5; inactive.
Rrp6 [DRSC16223] gave stable siRNA reporter change reporter ratio raised past the hit cutoff; stable assay Renilla, run 1 = 8338; stable assay firefly, run 1 = 2.72e5; active.
With knock-down of Usp8 (Ubiquitin specific protease 8) [DRSC15876], the screen gave stable assay Renilla, run 1 = 10242; stable assay firefly, run 1 = 4.20e5; inactive.
With knock-down of Cyfip (Cytoplasmic FMR1 interacting protein) [DRSC15679], the screen gave stable assay Renilla, run 1 = 7410; stable assay firefly, run 1 = 4.82e5; inactive.
Depletion of CG17221 [DRSC00487] gave: stable assay Renilla, run 1 = 8173; stable assay firefly, run 1 = 5.16e5; inactive.
For lncRNA:CR42862 + CG33229 [DRSC08497], the entry reads stable assay Renilla, run 1 = 11542; stable assay firefly, run 1 = 4.63e5; inactive.
Silencing of pot (papillote) [DRSC19850] gave: stable assay Renilla, run 1 = 8889; stable assay firefly, run 1 = 6.44e5; inactive.
Gpo2 (Glycerophosphate oxidase 2) [DRSC06822] gave stable assay Renilla, run 1 = 6266; stable assay firefly, run 1 = 3.04e5; inactive.
After knock-down of Mal-A6 (Maltase A6) [DRSC07233], the record shows stable assay Renilla, run 1 = 6351; stable assay firefly, run 1 = 3.33e5; inactive.
Silencing of CG34015 [DRSC19140] resulted in: stable siRNA reporter change reporter ratio raised past the hit cutoff; stable assay Renilla, run 1 = 2155; stable assay firefly, run 1 = 79760; inactive.
For NetA (Netrin-A) [DRSC20261], the entry reads stable assay Renilla, run 1 = 5568; stable assay firefly, run 1 = 4.20e5; inactive.
For Vtld + CG42529 [DRSC10102], the values are stable assay Renilla, run 1 = 6876; stable assay firefly, run 1 = 3.58e5; inactive.

Entries above with an active call, once more:
Rrp6 [DRSC16223]: stable siRNA reporter change = reporter ratio raised past the hit cutoff; stable assay Renilla, run 1 = 8338; stable assay firefly, run 1 = 2.72e5; Call = active
